Experimental findings from publication PMC2583055 are described below.

No constants are given. Whether binding was seen depends on the method and setting. In cells and extracts the contact can be indirect. Some entries that bind do so weakly or less than the wild type. Sequences can lack the tags named with a protein.

Assay [1] deals with T1, HA-NOD1 (pCI-HA-CARD4 vector) (UniProt Q9Y239).
T1 sequence: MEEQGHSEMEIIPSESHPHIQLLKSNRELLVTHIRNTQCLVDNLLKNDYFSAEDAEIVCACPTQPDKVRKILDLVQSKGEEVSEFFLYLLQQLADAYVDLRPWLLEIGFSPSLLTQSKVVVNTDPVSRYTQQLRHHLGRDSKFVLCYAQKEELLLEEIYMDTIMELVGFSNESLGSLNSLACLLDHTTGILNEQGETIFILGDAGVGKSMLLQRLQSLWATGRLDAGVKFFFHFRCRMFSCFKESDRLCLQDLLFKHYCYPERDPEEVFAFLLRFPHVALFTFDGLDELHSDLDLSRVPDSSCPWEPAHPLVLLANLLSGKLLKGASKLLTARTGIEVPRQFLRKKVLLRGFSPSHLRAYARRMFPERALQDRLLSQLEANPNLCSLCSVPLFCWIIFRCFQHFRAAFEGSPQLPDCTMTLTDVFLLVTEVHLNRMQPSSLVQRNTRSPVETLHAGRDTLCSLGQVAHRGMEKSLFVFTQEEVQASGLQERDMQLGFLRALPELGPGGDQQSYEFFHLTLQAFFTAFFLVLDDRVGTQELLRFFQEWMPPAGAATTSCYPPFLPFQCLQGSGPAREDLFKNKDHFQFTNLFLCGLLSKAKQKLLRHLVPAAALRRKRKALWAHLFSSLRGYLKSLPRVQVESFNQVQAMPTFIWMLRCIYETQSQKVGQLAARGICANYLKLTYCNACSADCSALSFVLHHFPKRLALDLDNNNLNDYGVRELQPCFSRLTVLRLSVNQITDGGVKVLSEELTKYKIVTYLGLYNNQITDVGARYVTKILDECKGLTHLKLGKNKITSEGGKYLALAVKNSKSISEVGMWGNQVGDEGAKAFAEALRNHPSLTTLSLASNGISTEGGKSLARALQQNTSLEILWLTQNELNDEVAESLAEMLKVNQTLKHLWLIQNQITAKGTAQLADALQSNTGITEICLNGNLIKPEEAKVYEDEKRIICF
Kind of assay: co-IP; HEK293 cells transfected (Fugene6), lysed after 48 h in NP-40 buffer (1% NP-40, 20 mM Tris-HCl pH 7.4, 150 mM NaCl); pre-cleared lysates incubated with anti-vsv or anti-HA antibodies at 4°C overnight, protein G plus agarose; Western blot; control antibodies as negative control. A general note: A western blot detects proteins with antibodies after separation by electrophoresis.

The target of assay [2] is T2, vsv-tagged Canis familialis GEF-H1 (guanine nucleotide exchange factor H1) (Canis familialis) (UniProt Q865S3).
T2 sequence: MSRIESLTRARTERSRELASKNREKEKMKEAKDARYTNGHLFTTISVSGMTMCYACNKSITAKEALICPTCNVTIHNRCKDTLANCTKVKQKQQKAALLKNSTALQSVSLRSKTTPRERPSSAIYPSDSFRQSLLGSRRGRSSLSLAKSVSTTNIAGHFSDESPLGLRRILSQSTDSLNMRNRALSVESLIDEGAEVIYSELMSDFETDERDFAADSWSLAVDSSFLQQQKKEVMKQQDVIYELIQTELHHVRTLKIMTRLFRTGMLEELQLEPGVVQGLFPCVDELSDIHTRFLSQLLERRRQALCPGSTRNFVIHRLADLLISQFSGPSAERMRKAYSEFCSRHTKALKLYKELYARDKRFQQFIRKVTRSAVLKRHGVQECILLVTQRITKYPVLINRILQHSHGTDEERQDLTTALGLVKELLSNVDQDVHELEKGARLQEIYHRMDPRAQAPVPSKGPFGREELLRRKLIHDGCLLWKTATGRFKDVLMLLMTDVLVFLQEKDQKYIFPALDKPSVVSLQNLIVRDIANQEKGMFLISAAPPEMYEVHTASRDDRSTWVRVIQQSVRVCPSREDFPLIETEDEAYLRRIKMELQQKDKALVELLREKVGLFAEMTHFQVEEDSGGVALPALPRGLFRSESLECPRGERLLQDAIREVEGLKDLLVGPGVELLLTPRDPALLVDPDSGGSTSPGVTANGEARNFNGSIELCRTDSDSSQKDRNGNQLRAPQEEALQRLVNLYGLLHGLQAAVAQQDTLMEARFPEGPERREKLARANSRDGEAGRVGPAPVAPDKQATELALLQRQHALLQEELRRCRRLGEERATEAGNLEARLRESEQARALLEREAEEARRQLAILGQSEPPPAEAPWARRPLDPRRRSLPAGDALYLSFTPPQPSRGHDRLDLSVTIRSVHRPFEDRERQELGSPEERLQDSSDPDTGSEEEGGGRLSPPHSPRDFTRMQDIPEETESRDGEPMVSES
Described as above.

B1: vsv-tagged Canis familialis GEF-H1 (guanine nucleotide exchange factor H1) (protein, UniProt Q865S3 1-986)
chain: T2 sequence
Consider B1, for which the binding entry in assay [1] is listed as “binds”.

B2: HA-NOD1 (pCI-HA-CARD4 vector) (protein, UniProt Q9Y239 1-953)
chain: T1 sequence
On to B2, for which, in assay [2], the binding result is listed as “binds”.
